Values joined by “and” are separate entries in the source; they are usually repeats but may differ in a detail not shown here. Equal entries are not always repeated. Structures can show the parent of a compound that is named as a salt. Some of the results follow. Repeats in this data set agree poorly, so a single value says little. Positions of bridges follow the written chain, without caps; N, C: chain ends. Non-standard residues stand in square brackets, D forms with d. Residues, ends and D or L forms follow the SMILES beside them. *: point of attachment. Ileψ(thiazoline)Cys = CC[C@H](C)[C@H](N)C1=N[C@H](C(=O)*)CS1; dOrn = NCCC[C@@H](N)C(=O)O
Each molecule was assayed on Brugia pahangi adult female (assay: motility inhibition on day 3 relative to DMSO vehicle; higher = more active). Details: 10 µM; 3 days.
CNC[C@H](O)c1ccc(O)c(O)c1 [adrenaline bitartrate] was tested, and the “motility inhibition on day 3” value was 1.86%. In the case of CN1CCN(CCCN2c3ccccc3Sc3ccc(C(F)(F)F)cc32)CC1 [Trifluoperazine dihydrochloride], the “motility inhibition on day 3” value is reported as 5.57%. CC(S)C(=O)NCC(=O)O (centres undefined) [tiopronin] was tested, and the “motility inhibition on day 3” value was 0.035%. For COc1ccc(OC)c(C(O)CNC(=O)CN)c1 (centres undefined) [midodrine hydrochloride], the “motility inhibition on day 3” value was less than 0%. In the case of CC(=O)NS(=O)(=O)c1ccc(NC(=O)c2ccccc2C(=O)O)cc1 [phthalylsulfacetamide], the “motility inhibition on day 3” value is reported as 5.81%. In the case of CC[C@H](C)[C@H](N)C1=N[C@H](C(=O)N[C@@H](CC(C)C)C(=O)N[C@H](CCC(=O)O)C(=O)N[C@H](C(=O)N[C@H]2CCCCNC(=O)[C@H](CC(N)=O)NC(=O)[C@@H](CC(=O)O)NC(=O)[C@H](Cc3cnc[nH]3)NC(=O)[C@@H](Cc3ccccc3)NC(=O)[C@H]([C@@H](C)CC)NC(=O)[C@@H](CCCN)NC2=O)[C@@H](C)CC)CS1 [bacitracin] ({Ileψ(thiazoline)Cys}-L[dE]IK[dOrn]I[dF]H[dD]N; lactam 4-C), the “motility inhibition on day 3” value is reported as 10.4%. OC(CNCC(O)C1CCc2cc(F)ccc2O1)C1CCc2cc(F)ccc2O1 (centres undefined) [nebivolol hydrochloride] was tested, and the “motility inhibition on day 3” value was 5.1%. In the case of Oc1c(I)cc(Cl)c2cccnc12 [clioquinol], the “motility inhibition on day 3” value is reported as 78.9%. CC(C)(C#N)c1cc(Cn2cncn2)cc(C(C)(C)C#N)c1 [anastrozole] was tested, and the “motility inhibition on day 3” value was less than 0%. In the case of CN(C)CCOC(C)(c1ccccc1)c1ccccn1 (centres undefined) [doxylamine succinate], the “motility inhibition on day 3” value is reported as less than 0%. In the case of C=CCNC(N)=S [allylthiourea], the “motility inhibition on day 3” value is reported as 36%. In the case of CC(=O)c1ccc2c(c1)N(CCCN(C)C)c1ccccc1S2 [acepromazine maleate], the “motility inhibition on day 3” value is reported as 9.55%. In the case of CN(C(=O)C(Cl)Cl)c1ccc(OC(=O)c2ccco2)cc1 [diloxanide furoate], the “motility inhibition on day 3” value is reported as 6.09%. For COc1cc(/C=C/C(N)=O)cc(OC)c1OC [cintriamide], the “motility inhibition on day 3” value was 37.1%. In the case of Nc1ccn([C@H]2CC[C@@H](CO)O2)c(=O)n1 [zalcitabine], the “motility inhibition on day 3” value is reported as 0.742%. For COc1ccc2c(c1)c(CC(=O)O)c(C)n2C(=O)c1ccc(Cl)cc1 [Indomethacin], the “motility inhibition on day 3” value was 36.6%. CN1CCC(=C2c3ccccc3CCc3cccnc32)CC1 [azatadine maleate] was tested, and the “motility inhibition on day 3” value was less than 0%. For Nc1nc2ccc(OC(F)(F)F)cc2s1 [Riluzole], the “motility inhibition on day 3” value was 7.54%. In the case of OC[C@H]1O[C@H](O[C@]2(CCl)O[C@H](CCl)[C@@H](O)[C@@H]2O)[C@H](O)[C@@H](O)[C@H]1Cl [sucralose], the “motility inhibition on day 3” value is reported as less than 0%. O=C(C1CCCCC1)N1CC(=O)N2CCc3ccccc3C2C1 (centres undefined) [praziquantel] was tested, and the “motility inhibition on day 3” value was 1.7%. For CCOC(=O)O[C@]1(C(=O)COC(=O)CC)CC[C@H]2[C@@H]3CCC4=CC(=O)C=C[C@]4(C)[C@H]3[C@@H](O)C[C@@]21C [prednicarbate], the “motility inhibition on day 3” value was 28.1%. With COc1ccc2c(c1OC)C(=O)O[C@@H]2[C@H]1c2c(cc3c(c2OC)OCO3)CCN1C [noscapine hydrochloride] the “motility inhibition on day 3” value was 17.3%. For CC(=O)NCCCS(=O)(=O)O [acamprosate calcium], the “motility inhibition on day 3” value was 1.72%. For O=C(O)c1cc(/N=N/c2ccc(O)c(C(=O)O)c2)ccc1O [olsalazine sodium], the “motility inhibition on day 3” value was 53.2%. For CC(C)(C)NCC(O)COc1cccc2c1CCC(=O)N2 (centres undefined) [carteolol hydrochloride], the “motility inhibition on day 3” value was 14.9%. C=C1c2c(Cl)ccc(O)c2C(=O)C2=C(O)[C@]3(O)C(=O)C(C(N)=O)=C(O)[C@@H](N(C)C)[C@@H]3[C@@H](O)[C@H]12.O=C(O)c1cc(S(=O)(=O)O)ccc1O [meclocycline sulfosalicylate] was tested, and the “motility inhibition on day 3” value was 7.87%. CN(C)C(=O)C(CCN1CCC(O)(c2ccc(Cl)cc2)CC1)(c1ccccc1)c1ccccc1 [Loperamide hydrochloride] was tested, and the “motility inhibition on day 3” value was 26.5%. With Nc1nc2[nH]cnc2c(=S)[nH]1 [thioguanine] the “motility inhibition on day 3” value was 2.75%. With CC(=O)C1C(=O)C=C(C)OC1=O (centres undefined) [dehydroacetic acid] the “motility inhibition on day 3” value was less than 0%. For O=C1c2c(O)cccc2C([C@@H]2O[C@H](CO)[C@@H](O)[C@H](O)[C@H]2O)c2cc(CO)cc(O)c21 (some centres undefined) [aloin], the “motility inhibition on day 3” value was 25.2%. In the case of CC(C(=O)O)c1ccc2c(c1)[nH]c1ccc(Cl)cc12 (centres undefined) [carprofen], the “motility inhibition on day 3” value is reported as less than 0%. For Cc1cccc(C)c1NC(=O)C(C)N (centres undefined), the “motility inhibition on day 3” value was 6.52%. CO/N=C(\C(=O)N[C@@H]1C(=O)N2C(C(=O)O)=C(CSc3nnnn3C)CS[C@H]12)c1csc(N)n1 [cefmenoxime hydrochloride] was tested, and the “motility inhibition on day 3” value was 26.9%. With C[C@H]1O[C@@H](O[C@H]2[C@@H](O)C[C@H](O[C@H]3[C@@H](O)C[C@H](O[C@H]4CC[C@@]5(C)[C@H](CC[C@@H]6[C@@H]5C[C@@H](O)[C@]5(C)[C@@H](C7=CC(=O)OC7)CC[C@]65O)C4)O[C@@H]3C)O[C@@H]2C)C[C@H](O)[C@@H]1O [digoxin] the “motility inhibition on day 3” value was 13.8%. In the case of O=C(OCC(O)CO)c1ccccc1Nc1ccnc2cc(Cl)ccc12 (centres undefined) [glafenine], the “motility inhibition on day 3” value is reported as less than 0%. In the case of CC(C(=O)O)c1ccc(-c2ccccc2)c(F)c1 (centres undefined) [flurbiprofen], the “motility inhibition on day 3” value is reported as 6.81%. For Cc1c(OCC(F)(F)F)ccnc1C[S@@+]([O-])c1nc2ccccc2[nH]1 [dexlansoprazole], the “motility inhibition on day 3” value was 16.5%. With Cc1cccc(C)c1OCC(C)N (centres undefined) [mexiletine hydrochloride] the “motility inhibition on day 3” value was 19.9%. For Cc1cc(=O)[nH]c(=S)[nH]1 [methylthiouracil], the “motility inhibition on day 3” value was 61.6%. With CC(=O)[C@H]1CC[C@H]2[C@@H]3C=CC4=CC(=O)CC[C@@]4(C)[C@@H]3CC[C@]12C [dydrogesterone] the “motility inhibition on day 3” value was less than 0%. For NC[C@@H]1O[C@H](O[C@H]2[C@@H](O)[C@H](O[C@@H]3[C@@H](O)[C@H](N)C[C@H](N)[C@H]3O[C@H]3O[C@H](CO)[C@@H](O)[C@H](O)[C@H]3N)O[C@@H]2CO)[C@H](N)[C@@H](O)[C@@H]1O [paromomycin sulfate], the “motility inhibition on day 3” value was 2.36%. For CC[C@]1(O)C[C@H]2CN(CCc3c([nH]c4ccccc34)[C@@](C(=O)OC)(c3cc4c(cc3OC)N(C=O)[C@H]3[C@@](O)(C(=O)OC)[C@H](OC(C)=O)[C@]5(CC)C=CCN6CC[C@]43[C@@H]65)C2)C1 [vincristine sulfate], the “motility inhibition on day 3” value was 1.32%. With COc1ccccc1OCC(O)CO (centres undefined) [guaifenesin] the “motility inhibition on day 3” value was 23.3%. For Cc1c(N(C)C)c(=O)n(-c2ccccc2)n1C [aminopyrine], the “motility inhibition on day 3” value was 16.9%. In the case of Oc1c(Cl)cc(Cl)c(Cl)c1Cc1c(O)c(Cl)cc(Cl)c1Cl [hexachlorophene], the “motility inhibition on day 3” value is reported as 95.1%. CCOC(=O)C1=C(COCCN)NC(C)=C(C(=O)OC)C1c1ccccc1Cl (centres undefined) [amlodipine besylate] was tested, and the “motility inhibition on day 3” value was 7.58% and 16.3%. With CCN(CC)CCNC(=O)c1c(C)[nH]c(/C=C2\C(=O)Nc3ccc(F)cc32)c1C [sunitinib malate] the “motility inhibition on day 3” value was 6.76%. For COc1ccc(/C=C/C(=O)Nc2ccccc2C(=O)O)cc1OC [tranilast], the “motility inhibition on day 3” value was 9.41%. In the case of C[n+]1c2cc(N)ccc2cc2ccc(N)cc21 [acriflavinium hydrochloride], the “motility inhibition on day 3” value is reported as 92.6%. In the case of CCC[C@@H]1C[C@@H](C(=O)N[C@@H]([C@H]2O[C@H](SC)[C@H](O)[C@@H](O)[C@H]2O)[C@H](C)Cl)N(C)C1 [clindamycin hydrochloride], the “motility inhibition on day 3” value is reported as less than 0%. For O=C(N[C@H](CO)[C@H](O)c1ccc([N+](=O)[O-])cc1)C(Cl)Cl [chloramphenicol], the “motility inhibition on day 3” value was 1.51%. With O=C(O)CCNC(=O)c1ccccc1 [betamipron] the “motility inhibition on day 3” value was less than 0%. For Cn1cnc2c1c(=O)[nH]c(=O)n2C [Theobromine], the “motility inhibition on day 3” value was 26.5%. For CC1=NN(c2ccccc2)C(=O)C1 [3-methyl-1-phenyl-2-pyrazolin-5-one (mci-186)], the “motility inhibition on day 3” value was 1.86%. For CCN(CC)CCNC(=O)c1cc(Cl)c(N)cc1OC [Metoclopramide hydrochloride], the “motility inhibition on day 3” value was less than 0%. With CCOc1ccc2ccccc2c1C(=O)N[C@@H]1C(=O)N2[C@@H]1SC(C)(C)[C@@H]2C(=O)O [nafcillin sodium] the “motility inhibition on day 3” value was 1.02%. In the case of CC(C)(CO)C(O)C(=O)NCCCO (stereo not drawn) [panthenol (dl)], the “motility inhibition on day 3” value is reported as 3.47%. OCc1cccnc1 [nicotinyl alcohol tartrate] was tested, and the “motility inhibition on day 3” value was 16%. COc1ccccc1Oc1c(NS(=O)(=O)c2ccc(C(C)(C)C)cc2)nc(-c2ncccn2)nc1OCCO [Bosentan] was tested, and the “motility inhibition on day 3” value was 48.8%. CN(C)CCC=C1c2ccccc2COc2ccccc21 [Doxepin hydrochloride] was tested, and the “motility inhibition on day 3” value was 15.7%. CN(C)CCC=C1c2ccccc2COc2ccccc21 [doxepin hydrochloride] was tested, and the “motility inhibition on day 3” value was 5.92%. CN1CCC[C@@H]1Cc1c[nH]c2ccc(CCS(=O)(=O)c3ccccc3)cc12 [eletriptan hydrobromide] was tested, and the “motility inhibition on day 3” value was 2.64%. With CC(C)[N+](C)(CCOC(=O)C1c2ccccc2Oc2ccccc21)C(C)C [propantheline bromide] the “motility inhibition on day 3” value was 3.84%. CC(C)Nc1cccnc1N1CCN(C(=O)c2cc3cc(NS(C)(=O)=O)ccc3[nH]2)CC1 [Delavirdine mesylate] was tested, and the “motility inhibition on day 3” value was 12.7%. Cc1onc(-c2ccccc2Cl)c1C(=O)N[C@@H]1C(=O)N2[C@@H]1SC(C)(C)[C@@H]2C(=O)O [cloxacillin sodium] was tested, and the “motility inhibition on day 3” value was less than 0%. C#Cc1cccc(Nc2ncnc3cc(OCCOC)c(OCCOC)cc23)c1 [Erlotinib] was tested, and the “motility inhibition on day 3” value was 4.41%. With NS(=O)(=O)c1cc2c(cc1Cl)NC(C(Cl)Cl)NS2(=O)=O (centres undefined) [trichlormethiazide] the “motility inhibition on day 3” value was 24.3%. With CN[C@@H]1[C@H](O)[C@H](NC)[C@H]2O[C@@]3(O)C(=O)C[C@@H](C)O[C@H]3O[C@@H]2[C@H]1O [spectinomycin hydrochloride] the “motility inhibition on day 3” value was less than 0%. In the case of CCCCCCOC(=O)NC(=N)c1ccc(NCc2nc3cc(C(=O)N(CCC(=O)OCC)c4ccccn4)ccc3n2C)cc1 [dabigatran etexilate mesylate], the “motility inhibition on day 3” value is reported as 25.7%.

Source: the supplement of paper PMC7830784
